Measured values from patent publication US11220671B2, “Methods for the maturation of cardiomyocytes on amniotic fluid cell-derived ECM, cellular constructs, and uses for cardiotoxicity and proarrhythmic screening of drug compounds” (STEMBIOSYS, INC., priority 2019, dated 2022).

Tested on: mature cardiomyocytes (hiPSC-CMs) on AFC-ECM
Protocol: The cardiotoxicity and/or proarrhythmia testing can be conducted using any type of equipment suitable for measuring such activity. In some embodiments, the cellular constructs of monolayers of mature cardiomyocytes on AFC-ECM are prepared as described supra. After the maturation process (generally 7 days or less), the electrophysiology of each well is observed using a plate reader. A suitable voltage sensitive or calcium sensitive fluorescent dye is loaded into each well. Non-limiting voltage sensitive dyes include FluoVolt™ dye commercially available from ThermoFisher. In some embodiments, the plate reader can rely on a suitable high spatiotemporal CCD camera combined with suitable lighting, such as light emitting diodes (LEDs), of the appropriate wavelength to excite each dye. Such high spatiotemporal CCD cameras are commercially available from SciMeasure. […] Each plate is centered under the camera system, lighting is switched on and camera acquisition is initiated and electrophysiological activity is recorded. […] After baseline readings are made, the drug to be tested is added to the wells and the effects are recorded. Spontaneous activity is recorded for a sufficient period of time to obtain images, e.g. at least 10 seconds. […] Images are analyzed and action potential duration, conduction velocity, beat rate and activation patterns can be quantified using image analysis software. […]

`COC(=O)C1=C(C)NC(C)=C(C(=O)OC)C1c1ccccc1[N+](=O)[O-]` [Nifedipine] was tested, and the “APD90 Prolongation? @10X ETPC” value was “No,” and the “Arrhythmia Detected?” value was “Yes, Q”.
